Measurements: PubChem BioAssay AID504834 (National Center for Advancing Translational Sciences (NCATS), 2011)
About 22,000 (6.9%) of roughly 320,000 compounds were called active. This list was built around the results that the source calls inconclusive (neither active nor inactive); the mix of calls is not that of the screen. Calls follow the shape of the dose curve; as a rule, active = well fitted inhibition curve with a large enough effect; inconclusive = small, poorly fitted or top-dose-only effect, or another doubt; inactive = no such curve, though single readings can be large or run the other way. Potencies beside an inconclusive call are fits to weak or partial responses and may not hold up.
Potency is read from the fitted curve at half-maximal effect.

Test: Primary qHTS for delayed death inhibitors of the malarial parasite plastid, 96 hour incubation
Conditions: P. falciparum luciferase reporter growth; series mostly up to 28.7 µM
Procedure, shortened: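 Two-generation exposure (96 h) targets delayed-death phenotype. Reporter parasites carrying integrated firefly luciferase, in red cells at 2% hematocrit and 0.05% parasitemia final, kept at 37 C, 5% CO2; luminescence loss indicates inhibition.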
In the case of `COc1cc(S(=O)(=O)n2ccc(C)n2)ccc1Cl`, the Potency is reported as inconclusive: 18.5 µM [inhibitor, single point].
For `C=CCN1C(=O)CSc2ccc(C(=O)NC(C)c3ccccc3)cc21` (configuration not stated), the Potency was active: 9.28 µM.
With `CCCN(C(=O)COC(=O)CNC(=O)c1ccc2ccccc2c1)c1c(N)n(Cc2ccccc2)c(=O)[nH]c1=O` the Potency was “inactive”.
For `CC(C)C1OC(c2cccc(NC(=O)c3cccs3)c2)OCC1(C)C` (configuration not stated), the Potency was inconclusive: 18.5 µM [inhibitor, single point].
With `Cc1c(NC(=O)C(C)OC(=O)/C=C/c2ccc3c(c2)OCO3)c(=O)n(-c2ccccc2)n1C` (configuration not stated) the Potency was inconclusive: 3.7 µM [inhibitor, single point].
In the case of `COc1cccc(NC(=O)COC(=O)C2CC(=O)N(c3ccc(C)cc3)C2)c1` (configuration not stated), the Potency is reported as “inactive”.
With `NS(=O)(=O)c1ccc(CNC(=O)c2ccc3ccccc3n2)cc1` the Potency was “inactive”.
In the case of `CN(CC(=O)Nc1ccc(N2CCOCC2)cc1)CC(=O)Nc1ccc([N+](=O)[O-])cc1Br`, the Potency is reported as inconclusive: 4.15 µM [inhibitor, single point].
With `COc1cc(NC(=O)CN(c2cc(C)cc(C)c2)S(=O)(=O)c2c(C)[nH]c(=O)[nH]c2=O)cc(OC)c1` the Potency was inconclusive: 11.7 µM [inhibitor, single point].
For `COc1cccc(C(C(=O)NC(C)(C)C)N(CCc2ccccc2)C(=O)CCC(=O)Nc2cc(C)on2)c1OC` (configuration not stated), the Potency was “inactive”.
For `CCN(CC)S(=O)(=O)c1ccc2[nH]c(=O)cc(C(=O)Nc3ccc(C)c(S(=O)(=O)N(CC)CC)c3)c2c1`, the Potency was inconclusive: 18.5 µM [inhibitor, single point].
In the case of `COc1ccc(N(CC(=O)Nc2ccc(C)c(C)c2)S(=O)(=O)c2c(C)n[nH]c2C)cc1`, the Potency is reported as inconclusive: 1.04 µM [inhibitor, partial curve, poor fit].
For `Nc1nonc1-n1nnc(C(=O)N/N=C/c2ccccc2Cl)c1-c1ccc2c(c1)OCO2`, the Potency was active: 0.657 µM.
With `CCOC(=O)Cc1csc(SCn2nnc3ccccc3c2=O)n1` the Potency was “inactive”.
In the case of `Cc1cc(C)c(C#N)c(SCC(=O)N(CCC#N)c2ccc3c(c2)OCCO3)n1`, the Potency is reported as inconclusive: 10.4 µM [inhibitor, single point].
For `C[C@H]1CN=C(Nc2ccccc2)N1CCCC1CCCCC1`, the Potency was inconclusive: 0.0657 µM [inhibitor, full curve, poor fit].
With `O=C(NCC1CCCO1)C(=Cc1cccc([N+](=O)[O-])c1)C(=O)NCC1CCCO1` (configuration not stated) the Potency was active: 13.1 µM.
In the case of `Cc1ccccc1CC1(CO)CCCN(C(=O)c2ccccc2Cl)C1` (configuration not stated), the Potency is reported as active: 9.28 µM.
With `C#CCNC(=O)C1=C[C@H](c2coc3ccccc3c2=O)C[C@H](OCc2ccc(CO)cc2)O1` the Potency was inconclusive: 11.7 µM [inhibitor, single point].
With `CCOC(=O)c1sc(NC(=O)CNCc2cccnc2)c(C(=O)OCC)c1C` the Potency was inconclusive: 18.5 µM [inhibitor, single point].
In the case of `COc1ccccc1C(=O)Nc1nc(-c2ccc3c(c2)OCCO3)cs1`, the Potency is reported as “inactive”.
With `O=C(O)[C@@H](c1ccccc1)N1Cc2ccccc2C1=O` the Potency was inconclusive: 0.522 µM [inhibitor, partial curve, poor fit].
For `CCOC(=O)c1[nH]c2cc(OC)c(OC)cc2c1NC(=O)CCN1CCSCC1`, the Potency was “inactive”.
For `Cn1c(C(=O)NN)cc2cc(Oc3ccccc3)ccc21`, the Potency was inconclusive: 16.5 µM [inhibitor, single point].
For `O=C(COC(=O)c1ccc(O)cc1)Nc1ccccc1`, the Potency was “inactive”.
In the case of `O=C(N/N=C/c1ccc(OCc2ccccc2)cc1)c1ccc(O)cc1`, the Potency is reported as inconclusive: 0.0026 µM [inhibitor, full curve, poor fit].
In the case of `O=C(CN1C(=O)c2ccccc2C1=O)OCC(=O)c1ccccc1`, the Potency is reported as inconclusive: 4.15 µM [inhibitor, single point].
For `COc1ccc(OC)c(CNC(=O)CCc2cn(C)c3ccccc23)c1`, the Potency was active: 3.7 µM.
For `O=C1OC(/C(=C\Nc2ccccc2)[N+](=O)[O-])c2ccccc21` (configuration not stated), the Potency was inconclusive: 10.4 µM [inhibitor, single point].
For `CCN1CCN(c2cc(SC(C)C)nc(-c3ccc(OC)cc3)n2)CC1`, the Potency was inconclusive: 14.7 µM [inhibitor, partial curve, poor fit].
For `Cc1ccc(Sc2cc(N3CCOCC3)nc(-c3ccccc3)n2)cc1`, the Potency was inconclusive: 2.08 µM [inhibitor, partial curve, poor fit].
With `O=C(O)CCC1=C2c3ccccc3CCN2C(=O)CC1` the Potency was inconclusive: 18.5 µM [inhibitor, single point].
With `Clc1cc2nc(-c3cccnc3Cl)[nH]c2cc1Cl` the Potency was “inactive”.
For `O=C(NCc1cccnc1)C1CCCN(Cc2cnn(-c3ccccc3)c2-n2cccc2)C1` (configuration not stated), the Potency was active: 11.7 µM.
For `CCC(C)N=Cc1c(NCc2ccco2)nc2c(C)cccn2c1=O` (configuration not stated), the Potency was “inactive”.
With `CCc1ccc(C(=O)OCC(=O)N(CC)c2c(N)n(Cc3ccccc3)c(=O)[nH]c2=O)cc1` the Potency was inconclusive: 16.5 µM [inhibitor, single point].
In the case of `COc1ccc(-c2coc3cc(O)cc(O)c3c2=O)cc1OC`, the Potency is reported as “inactive”.
With `CC(=C/c1ccccc1)/C=N/n1c(C)n[nH]c1=S` the Potency was active: 11.7 µM.
For `CC1=CC(c2ccc(Cl)cc2)n2nc(NC(=O)CCC(=O)O)nc2N1` (configuration not stated), the Potency was “inactive”.
In the case of `Cc1ccccc1NC(=O)NC(C)(C)CC(C)(C)C`, the Potency is reported as inconclusive: 4.15 µM [inhibitor, partial curve].
With `COc1ccc(NC2=C(C(C)=O)C(c3ccc(OC)c(OC)c3)C(C(C)=O)C(C)(O)C2)cc1` (configuration not stated) the Potency was “inactive”.
With `CCN(CC)C(=O)CSc1nc2sc3c(c2c(=O)n1-c1ccc(C)cc1)CC(C)(C)SC3` the Potency was inconclusive: 13.1 µM [inhibitor, partial curve, poor fit].
For `COc1ccc(NC(=O)c2ccc(CN(c3cc(Cl)ccc3C)S(=O)(=O)c3ccccc3)cc2)cc1OC`, the Potency was “inactive”.
In the case of `Cc1nc(SCc2ccc(Cl)cc2)ncc1C(=O)O`, the Potency is reported as inconclusive: 20.8 µM [inhibitor, partial curve, poor fit].
In the case of `CCCc1nnc(NC(=O)C(CC)OC(=O)c2cc(C)nc3ccccc23)s1` (configuration not stated), the Potency is reported as inconclusive: 10.4 µM [inhibitor, single point].
For `CC(C)CN(C(=O)COC(=O)c1ccc(Cl)c(N)c1)c1c(N)n(Cc2ccccc2)c(=O)[nH]c1=O`, the Potency was inconclusive: 16.5 µM [inhibitor, single point].
For `O=C(Nc1ccc(Br)cc1)C1C2C=CC3(O2)C1C(=O)N(CCN1CCCCC1)C3C(=O)NC1CCCCC1` (configuration not stated), the Potency was inconclusive: 13.1 µM [inhibitor, partial curve].
With `CCCN(CCC)CCNC(=O)c1cc2c(C)nc3ccccc3c2o1` the Potency was inconclusive: 0.0738 µM [inhibitor, full curve, poor fit].
For `Cc1nc(C)c(C(=O)NNC(=O)Nc2ccc(Cl)cc2)s1`, the Potency was “inactive”.
For `N#CC1=C(N)N2C(=C(C#N)C1c1ccccc1)Sc1ccccc12` (configuration not stated), the Potency was “inactive”.
For `CC1CCCC(C)N1CC(O)COCc1ccccc1F` (configuration not stated), the Potency was “inactive”.
For `CNc1sc(C(=O)c2ccccc2F)c(N)c1-c1nc2ccccc2s1`, the Potency was inconclusive: 18.5 µM [inhibitor, single point].
In the case of `CC1CCc2cc(F)ccc2N1C(=O)c1cccnc1` (configuration not stated), the Potency is reported as “inactive”.
For `Cc1ccc(CN2CCN(Cc3cccn3-c3nccs3)CC2CCO)cc1` (configuration not stated), the Potency was inconclusive: 11.7 µM [inhibitor, single point].
With `COc1cc(/C=C2\SC(N)=NC2=O)cc(Br)c1O` the Potency was inconclusive: 18.5 µM [inhibitor, single point].
In the case of `CCCc1cc(C(=O)Nc2ccc(C(C)=O)cc2)no1`, the Potency is reported as inconclusive: 10.4 µM [inhibitor, partial curve].
With `COCc1cc(C)[nH]c(=O)c1C#N` the Potency was “inactive”.
For `CN(CC1CCCN(CCc2ccc(F)cc2)C1)C(=O)CCC(N)=O` (configuration not stated), the Potency was inconclusive: 3.7 µM [inhibitor, single point].
In the case of `CC(=O)c1cc(C#N)c(SCC(=O)O)nc1C`, the Potency is reported as “inactive”.
For `COc1ccccc1N(C)S(=O)(=O)c1ccc(C)c(C(=O)NCc2ccccn2)c1`, the Potency was inconclusive: 11.7 µM [inhibitor, partial curve, poor fit].
With `COCCn1c(Cc2ccccc2)nnc1SCC(=O)N1CCCC1=O` the Potency was inconclusive: 4.65 µM [inhibitor, partial curve].
In the case of `O=C(c1cccs1)n1nc(-c2ccccc2)nc1NCc1ccco1`, the Potency is reported as inconclusive: 10.4 µM [inhibitor, single point].
With `O=C(COc1ccc(Cl)cc1)Nc1ccc(N2CCN(C(=O)c3ccco3)CC2)cc1` the Potency was active: 11.7 µM.
With `O=C(CSCc1c(Cl)cccc1Cl)Nc1ccc2c(c1)OCCO2` the Potency was active: 3.29 µM.
With `Cc1cc(C)cc(NC(=O)C[n+]2ccccc2)c1` the Potency was inconclusive: 10.4 µM [inhibitor, single point].
In the case of `COc1ccc(NC(=S)Nc2ccccc2)cc1`, the Potency is reported as “inactive”.
With `C#CC1CCCCC1NC(=O)Nc1cnccc1C(F)(F)F` (configuration not stated) the Potency was “inactive”.
For `O=C1CCC(C(=O)Nc2ccc(Cl)cc2)N1` (configuration not stated), the Potency was active: 5.22 µM.
In the case of `CC(=O)c1cccc(NC(=O)C2CCN(S(=O)(=O)c3ccc(C)cc3)CC2)c1`, the Potency is reported as inconclusive: 18.5 µM [inhibitor, single point].
With `CC(C)(C)C(=O)Nc1nnc(SCC(=O)Nc2nccs2)s1` the Potency was “inactive”.
With `COc1ccc([C@H]2CC(=O)C=C(c3cccc4c3Oc3ccccc3S4)C2)cc1OC` the Potency was inconclusive: 6.57 µM [inhibitor, partial curve, poor fit].
With `Cc1c(OCC(=O)NCc2cccnc2)ccc2c3c(c(=O)oc12)CCCC3` the Potency was active: 13.1 µM.
